Laboratory results from PubChem BioAssay AID328 (DTP/NCI, 2004).
The list shows only some results of the screen, not a fair sample: it gathers tests that were run many times, whatever their T/C, doses with no T/C, and many T/C values between a quarter and a half above the control. Further doses and runs are listed elsewhere. T/C: endpoint of the treated group in % of that of the vehicle group. Some doses have a count of surviving animals in place of a T/C: the source holds a T/C of zero for them, seemingly a mark for toxic or unscored doses. Some doses without a T/C left all or most animals alive at the check, yet need not have been tolerated: survival well below the control is almost never listed, so the zero probably covers shortened survival too. Counts of survivors are from the toxicity check (mostly the fifth day) where no day follows; animals may have died later. Schedule codes are those of the source, taken here to give the interval after Q, in days (D) or hours (H), and the number of doses after X. Some entries hold several experiments; their values stand side by side, smallest first. For survival time, the PubChem record calls one and a half times the control and up active, and a quarter to a half above the control has no call in these data; cut-offs in other NCI protocols can differ. Some T/C values are followed by the survivors on the day toxicity was checked, most often the fifth; where none is given, no animal had died by that day.

Tested on: BDF1 mice, P388 leukemia ip, median survival T/C
Assay: NCI In Vivo Anticancer Drug Screen. Data for tumor model P388 Leukemia (intraperitoneal) in B6D2F1 (BDF1) mice
Conditions: T/C endpoint: median survival time, higher T/C = longer survival
How it was run: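 Antitumour effect was judged in vivo: survival in drug-treated mice, normalised to that of vehicle-dosed controls, gives the reported T/C.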

[1] = dose: 12.5 mg/kg/injection, schedule: Q04DX003 (ip), vehicle: saline
[2] = dose: 25.0 mg/kg/injection, schedule: Q04DX003 (ip), vehicle: saline
[3] = dose: 6.25 mg/kg/injection, schedule: Q01DX009 (ip), vehicle: saline
[4] = dose: 12.5 mg/kg/injection, schedule: Q01DX009 (ip), vehicle: saline
[5] = dose: 25.0 mg/kg/injection, schedule: Q01DX009 (ip), vehicle: saline
[6] = dose: 400.0 mg/kg/injection, schedule: Q01DX009 (ip), vehicle: saline with Tween-80
[7] = dose: 400.0 mg/kg/injection, schedule: Q01DX009 (ip), vehicle: Klucel (hydroxypropylcellulose) (HPC)
[8] = dose: 50.0 mg/kg/injection, schedule: Q01DX009 (ip), vehicle: saline
[9] = dose: 100.0 mg/kg/injection, schedule: Q01DX009 (ip), vehicle: saline
[10] = dose: 100.0 mg/kg/injection, schedule: Q04DX003 (ip), vehicle: saline with Tween-80
[11] = dose: 400.0 mg/kg/injection, schedule: Q04DX003 (ip), vehicle: saline
[12] = dose: 100.0 mg/kg/injection, schedule: Q01DX009 (ip), vehicle: saline with Tween-80
[13] = dose: 200.0 mg/kg/injection, schedule: Q01DX009 (ip), vehicle: saline with Tween-80

Question: How did the T/C (dose: 6.25 mg/kg/injection, schedule: Q04DX003 (ip), vehicle: saline) turn out when `COc1cccc2c1C(=O)c1c(O)c3c(c(O)c1C2=O)C[C@@](O)(/C(C)=N\NC(=O)CO)C[C@@H]3OC1CC(N)C(O)C(C)O1` (some centres not stated) was run?
Answer: Its T/C is 139 % of control.

Question: What about the survivor count [1] of the same molecule?
Answer: The survivor count was 6 of 6.

Question: And the survivor count [2]?
Answer: Its survivor count is 6 of 6.

Question: What about the T/C (dose: 66.0 micrograms/kg/injection, schedule: Q01DX009 (ip), vehicle: saline) of the same molecule?
Answer: The T/C was 144 % of control.

Question: And the T/C (dose: 100.0 micrograms/kg/injection, schedule: Q01DX009 (ip), vehicle: saline)?
Answer: The T/C was 142 % of control.

Question: What does the source list for `O=C(OC[P+](c1ccccc1)(c1ccccc1)c1ccccc1)c1ccccc1`?
Answer: T/C [3]: 135 % of control; T/C [4]: 130 and 145 % of control; T/C [5]: 134 % of control

Question: `CN(C)c1ccccc1.[C-]#[O+].[C-]#[O+].[C-]#[O+].[Cr]` was tested. Which survivor count (dose: 200.0 mg/kg/injection, schedule: Q04DX003 (ip), vehicle: saline with Tween-80) did it give?
Answer: Its survivor count is 5 of 6.

Question: What about the survivor count (dose: 400.0 mg/kg/injection, schedule: Q04DX003 (ip), vehicle: saline with Tween-80) of the same molecule?
Answer: Its survivor count is 1 of 6.

Question: How did the survivor count [6] turn out when `CC(C)(C)C(=O)CC(O)(C(F)(F)Cl)C(F)(F)Cl` was run?
Answer: The survivor count was 6 of 6.

Question: With `NNC(=S)N/N=C/c1ccc([N+](=O)[O-])s1` as the molecule, how does the survivor count [7] read?
Answer: Its survivor count is 5 of 6.

Question: With `CCCCCCC#CC(=O)O` as the molecule, how does the survivor count [6] read?
Answer: Its survivor count is 3 of 6.

Question: What about the survivor count (dose: 400.0 mg/kg/injection, schedule: Q04DX003 (sc), vehicle: olive oil, sesame oil, peanut oil) of the same molecule?
Answer: Its survivor count is 6 of 6.

Question: With `CCCCc1ccc(NC(=O)N(CCCl)N=O)cc1` as the molecule, how does the T/C (dose: 1.25 mg/kg/injection, schedule: Q01DX009 (ip), vehicle: Klucel (hydroxypropylcellulose) (HPC)) read?
Answer: The T/C was 145 % of control.

Question: What about the T/C (dose: 2.5 mg/kg/injection, schedule: Q04DX003 (ip), vehicle: other) of the same molecule?
Answer: Its T/C is 127 % of control.

Question: What about the T/C (dose: 5.0 mg/kg/injection, schedule: Q04DX003 (ip), vehicle: other) of the same molecule?
Answer: Its T/C is 140 % of control.

Question: And the survivor count (dose: 32.25 mg/kg/injection, schedule: Q04DX003 (ip), vehicle: Klucel (hydroxypropylcellulose) (HPC))?
Answer: Its survivor count is 6 of 6.

Question: And the survivor count (dose: 62.5 mg/kg/injection, schedule: Q01DX009 (ip), vehicle: Klucel (hydroxypropylcellulose) (HPC))?
Answer: The survivor count was 3 of 6.

Question: And the survivor count (dose: 62.5 mg/kg/injection, schedule: Q04DX003 (ip), vehicle: Klucel (hydroxypropylcellulose) (HPC))?
Answer: Its survivor count is 5 of 6.

Question: And the survivor count (dose: 125.0 mg/kg/injection, schedule: Q01DX009 (ip), vehicle: Klucel (hydroxypropylcellulose) (HPC))?
Answer: Its survivor count is 1 of 6.

Question: What about the survivor count (dose: 125.0 mg/kg/injection, schedule: Q04DX003 (ip), vehicle: Klucel (hydroxypropylcellulose) (HPC)) of the same molecule?
Answer: The survivor count was 1 of 6.

Question: And the survivor count (dose: 250.0 mg/kg/injection, schedule: Q01DX009 (ip), vehicle: Klucel (hydroxypropylcellulose) (HPC))?
Answer: Its survivor count is 0 of 6.

Question: And the survivor count (dose: 250.0 mg/kg/injection, schedule: Q04DX003 (ip), vehicle: Klucel (hydroxypropylcellulose) (HPC))?
Answer: The survivor count was 0 of 6.

Question: What about the survivor count (dose: 500.0 mg/kg/injection, schedule: Q04DX003 (ip), vehicle: Klucel (hydroxypropylcellulose) (HPC)) of the same molecule?
Answer: The survivor count was 0 of 6.

Question: Which T/C [3] does the source give for `OCC1OC(n2cnc3cncnc32)C(O)C1O` (configuration not stated) here?
Answer: The T/C was 125, 131, 134, 140 % of control.

Question: And the T/C [4]?
Answer: The T/C was 103, 120, 125, 126 % of control.

Question: What about the T/C [1] of the same molecule?
Answer: The T/C was 127 % of control.

Question: And the survivor count [5]?
Answer: The survivor count was 3 of 3 and 6 of 6.

Question: And the T/C [2]?
Answer: The T/C was 136 % of control.

Question: What about the survivor count [8] of the same molecule?
Answer: The survivor count was 1 of 3 and 6 of 6.

Question: `CCCC[N+](CC)(CC)CCCNC1=CC(=O)C(NCCC[N+](CC)(CC)CCCC)=CC1=O` was tested. Which survivor count (dose: 1.56 mg/kg/injection, schedule: Q04DX002 (ip), vehicle: saline) did it give?
Answer: The survivor count was 0 of 6.

Question: What does the source list for `COC(=O)CC1(O)C=CC(=O)C=C1`?
Answer: survivor count [8]: 2 of 4; survivor count [9]: 0 of 4

Question: `O=c1[nH]c(-c2ccccc2)c(-c2ccccc2)[nH]1` was tested. Which survivor count (dose: 100.0 mg/kg/injection, schedule: Q01DX009 (ip), vehicle: Klucel (hydroxypropylcellulose) (HPC)) did it give?
Answer: The survivor count was 6 of 6.

Question: What about the survivor count (dose: 200.0 mg/kg/injection, schedule: Q01DX009 (ip), vehicle: Klucel (hydroxypropylcellulose) (HPC)) of the same molecule?
Answer: Its survivor count is 6 of 6.

Question: What about the survivor count [7] of the same molecule?
Answer: The survivor count was 2 of 6.

Question: Which survivor count [10] does the source give for `OC(CCl)COCC#Cc1ccccc1` (configuration not stated) here?
Answer: Its survivor count is 3 of 6.

Question: How did the survivor count (dose: 4.0 mg/kg/injection, schedule: Q01DX009 (ip), vehicle: other) turn out when `CCCCCc1cc(/C=C2/N=C(c3ccc[nH]3)C=C2OC)[nH]c1C` was run?
Answer: The survivor count was 3 of 3.

Question: Which T/C (dose: 8.0 mg/kg/injection, schedule: Q01DX010 (ip), vehicle: saline) does the source give for `O=C(Nc1ccc(C2=NCCN2)cc1)c1cccc(C(=O)Nc2ccc(C3=NCCN3)cc2)c1` here?
Answer: Its T/C is 145 % of control.

Question: How did the survivor count [6] turn out when `CC(=O)[C@@]12OC(C)(C)O[C@@H]1C[C@H]1[C@@H]3C[C@H](C)C4=CC(=O)CC[C@]4(C)[C@H]3CC[C@@]12C` was run?
Answer: The survivor count was 2 of 6.

Question: Which survivor count [11] does the source give for `O=C(Oc1ccc([N+](=O)[O-])cc1)c1ccc(C[n+]2ccccc2)cc1` here?
Answer: The survivor count was 1 of 6.

Question: `[Co].[N-]=C=S.[N-]=C=S.[N-]=C=S.[NH2-].[NH2-].[NH2-]` was tested. Which survivor count (dose: 600.0 mg/kg/injection, schedule: Q01DX001 (ip), vehicle: suspension in saline) did it give?
Answer: The survivor count was 1 of 6.

Question: Which results are given for `Cc1ccc2c[n+]3cc4ccccc4cc3cc2c1`?
Answer: T/C (dose: 2.0 mg/kg/injection, schedule: Q01DX009 (ip), vehicle: saline): 135 % of control; T/C (dose: 3.12 mg/kg/injection, schedule: Q01DX009 (ip), vehicle: saline): 136 and 140 % of control; T/C [3]: 127 % of control; survivor count (dose: 9.2 mg/kg/injection, schedule: Q01DX009 (ip), vehicle: saline): 0 of 6; survivor count (dose: 14.0 mg/kg/injection, schedule: Q01DX009 (ip), vehicle: saline): 0 of 6; survivor count (dose: 18.0 mg/kg/injection, schedule: Q04DX003 (ip), vehicle: saline): 5 of 6; survivor count (dose: 21.0 mg/kg/injection, schedule: Q01DX009 (ip), vehicle: saline): 0 of 6

Question: For `CC(C)(C)OOC(=O)c1ccccc1O`, which T/C [12] is on record?
Answer: The T/C was 136 % of control.

Question: And the survivor count [13]?
Answer: The survivor count was 0 of 6.

Question: How did the T/C (dose: 50.0 mg/kg/injection, schedule: Q01DX009 (ip), vehicle: saline with Tween-80) turn out when `Cc1ccc2c(c1)N=C(Nc1ccccc1)N=S2(C)=O` (configuration not stated) was run?
Answer: Its T/C is 140 % of control [5 of 6 alive].

Question: And the survivor count [13]?
Answer: The survivor count was 5 of 6.

Question: `CCN1CC1` (tested in a mixture with another compound) was tested. Which survivor count (dose: 0.14 mg/kg/injection, schedule: Q01DX009 (ip), vehicle: saline) did it give?
Answer: Its survivor count is 6 of 6.

Question: What about the survivor count (dose: 0.29 mg/kg/injection, schedule: Q01DX009 (ip), vehicle: saline) of the same molecule?
Answer: The survivor count was 6 of 6.

Question: And the survivor count (dose: 4.68 mg/kg/injection, schedule: Q01DX009 (ip), vehicle: saline)?
Answer: The survivor count was 0 of 6.

Question: With `C=CCCc1cc(OC)ccc1C(=O)C(C)C` as the molecule, how does the T/C [12] read?
Answer: The T/C was 137 % of control.

Question: `Cn1cnc([N+](=O)[O-])c1[Se]c1ncnc2c1ccn2C1OC(CO)C(O)C1O` (configuration not stated) was tested. Which survivor count [8] did it give?
Answer: Its survivor count is 3 of 6.

Question: And the survivor count [9]?
Answer: Its survivor count is 2 of 6.

Question: What about the survivor count (dose: 200.0 mg/kg/injection, schedule: Q01DX009 (ip), vehicle: saline) of the same molecule?
Answer: The survivor count was 1 of 6.

Question: And the survivor count [11]?
Answer: The survivor count was 0 of 6.

Question: `O=c1[nH]c(=O)n(C2CC(O)C(CO)O2)cc1I` (configuration not stated) was tested. Which T/C (dose: 160.0 mg/kg/injection, schedule: Q01DX009 (ip), vehicle: saline with Tween-80) did it give?
Answer: The T/C was 125 and 126 % of control.

Question: `C=C(C)C(=O)NCCCCCC(=O)Oc1ccc([N+](=O)[O-])cc1` was tested. Which survivor count [12] did it give?
Answer: Its survivor count is 6 of 6.

Question: How did the survivor count [10] turn out when `CCCOC(=O)/C=C(\Br)C(=O)OCCC` was run?
Answer: The survivor count was 3 of 6.

Question: Which survivor count (dose: 400.0 mg/kg/injection, schedule: Q01DX009 (ip), vehicle: saline) does the source give for `CCOC(=O)/C=C/c1c[nH]c(=O)[nH]c1=O` here?
Answer: The survivor count was 2 of 6.

Question: With `c1ccc(CN2CCn3nccc32)cc1` as the molecule, how does the survivor count (dose: 200.0 mg/kg/injection, schedule: Q01DX009 (ip), vehicle: other) read?
Answer: Its survivor count is 6 of 6.
